Results: PubChem BioAssay AID504834 (National Center for Advancing Translational Sciences (NCATS), 2011)
Values joined by “and” are separate entries in the source; they are usually repeats but may differ in a detail not shown here. Identical values can stand only once. The campaign covered roughly 320,000 compounds. About 22,000 (6.9%) were called active. The shares of active, inactive and inconclusive entries below differ from those in the screen. Calls follow the shape of the dose curve; as a rule, active = well fitted inhibition curve with a large enough effect; inconclusive = small, poorly fitted or top-dose-only effect, or another doubt; inactive = no such curve, though single readings can be large or run the other way. Potencies of inconclusive entries are doubtful fits and often do not repeat.

Experiment: Primary qHTS for delayed death inhibitors of the malarial parasite plastid, 96 hour incubation
Conditions: P. falciparum luciferase reporter growth; series mostly up to 28.7 µM; activity change, negative = inhibition: at the top concentration
Procedure, shortened: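 Two-generation exposure (96 h) targets delayed-death phenotype. Reporter parasites carrying integrated firefly luciferase, in red cells at 2% hematocrit and 0.05% parasitemia final, kept at 37 C, 5% CO2; luminescence loss indicates inhibition.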
% is scaled to controls: 0 for no effect and ±100 for the full control effect; potency is read from the fitted curve at half-maximal effect.

| SMILES | Potency | activity change, negative = inhibition |
| --- | --- | --- |
| OC(c1ccc(F)cc1)C(CN1CCOCC1)c1ccccc1 (configuration not stated) | active: 10.4 µM | – |
| CCOc1ccc(C2C3=C(Nc4nc(N)[nH]c(=O)c42)c2ccccc2C3=O)cc1 (configuration not stated) | inconclusive: 18.5 µM [inhibitor, single point] | – |
| CC(C)c1nnc(NC(=O)CCC(=O)N2CCC(Cc3ccccc3)CC2)s1 | inconclusive: 18.5 µM [inhibitor, single point] | – |
| Cc1c(C(=O)N/N=C/c2cccs2)nnn1-c1nonc1N | – | inactive: -5.01% |
| Cc1ccc(S(=O)(=O)Nc2cnc3ccccc3c2)cc1 | inconclusive: 20.8 µM [inhibitor, partial curve, poor fit] | – |
| CC1(C)CC(N(Cc2ccco2)C(=O)Cc2ccccc2)CCO1 (configuration not stated) | inconclusive: 5.86 µM [inhibitor, partial curve, poor fit] | – |
| NC(=O)C1CCN(c2oc(/C=C/c3ccccc3)nc2S(=O)(=O)c2ccccc2)CC1 | inconclusive: 2.94 µM [inhibitor, full curve] | – |
| C=CCN(c1ccccc1Cl)S(=O)(=O)c1cccc(C(=O)NCCc2ccc(OC)cc2)c1 | inconclusive: 11.7 µM [inhibitor, single point] | – |
| CCCc1c(C(=O)N/N=C(\C)CCc2ccccc2)nnn1-c1nonc1N | – | inactive: 7.54% |
| CC(C)Oc1cccc(C(=O)C2CCCN(Cc3cnc(N4CCCC4)s3)C2)c1 (configuration not stated) | inconclusive: 18.5 µM [inhibitor, single point] | – |
| CC1CC(=O)c2cnc(Nc3cccc(C(F)(F)F)c3)nc2C1 (configuration not stated) | – | inactive: 127% |
| COCCN1C(=O)c2ccc(C(=O)Nc3cccnc3)cc2C1=O | inconclusive: 11.7 µM [inhibitor, partial curve] | – |
| Cc1n[nH]c(=O)c2c1nnn2Cc1ccc(F)cc1 | inconclusive: 11.7 µM [inhibitor, single point] | – |
| CC(C)c1ccc(NC(=O)C2C3C=CC4(O3)C2C(=O)N(CCN2CCOCC2)C4C(=O)NC2CCCCC2)cc1 (configuration not stated) | inconclusive: 10.4 µM [inhibitor, single point] | – |
| CC(C)C[C@H](NC(=O)C1CC(=O)N(c2ccc3c(c2)OCCO3)C1)C(=O)N1CCCCC1 (some centres not stated) | – | inactive: -16.6% |
| Cc1ccc2nc(-c3ccccn3)cc(C(=O)NCCc3ccc(F)cc3)c2c1 | inconclusive: 8.28 µM [inhibitor, partial curve] | – |
| Cc1nn(-c2ccc(N3CCCCC3)nn2)c(C)c1CCC(=O)Nc1cccc(F)c1 | inconclusive: 18.5 µM [inhibitor, single point] | – |
| O=C(CSc1nc2ccccc2c(=O)n1-c1ccc(F)cc1F)c1c[nH]c2ccccc12 | inconclusive: 11.7 µM [inhibitor, single point] | – |
| Cc1cc(C)nc(NS(=O)(=O)c2ccc(N3C(=O)C4CC=C(Cl)CC4C3=O)cc2)n1 (configuration not stated) | inconclusive: 13.1 µM [inhibitor, partial curve, poor fit] | – |
| COCCN(C(=O)COC(=O)/C=C/c1ccc(C(F)(F)F)cc1)c1c(N)n(Cc2ccccc2)c(=O)[nH]c1=O | inconclusive: 10.4 µM [inhibitor, single point] | – |
| CCCn1nnnc1NC(=O)c1ccc2ccccc2c1 | inconclusive: 16.5 µM [inhibitor, single point] | – |
| CCOC(=O)C1CN(S(=O)(=O)c2ccc(OC)cc2)c2cc(S(=O)(=O)CC)ccc2O1 (configuration not stated) | inconclusive: 0.37 µM [inhibitor, full curve, poor fit] | – |
| COc1ccc(OC)c(/C=C/C(=O)OCC(=O)NC2CCCCCCC2)c1 | inconclusive: 4.15 µM [inhibitor, single point] | – |

| SMILES | Potency | activity change, negative = inhibition |
| --- | --- | --- |
| Cc1ccc(C(OCC(C)(C)C[N+](C)(C)C)c2ccccc2)cc1 (configuration not stated) | inconclusive: 18.5 µM [inhibitor, single point] | – |
| O=C(CCn1ccnc1)Nc1cc(Cl)ccc1O | inconclusive: 0.0329 µM [inhibitor, full curve, poor fit] | – |
| O=C(COc1ccc(S(=O)(=O)Nc2cccc(C(F)(F)F)c2)cc1)N1CCOCC1 | inconclusive: 1.17 µM [inhibitor, full curve, poor fit] | – |
| Fc1ccccc1Cc1nnc2n1N=C(c1ccc(Cl)cc1)CS2 | – | inactive: 23.2% |
| CN1CCN(C(=S)NC(CC(=O)c2ccccc2)c2ccccc2)CC1 (configuration not stated) | inconclusive: 0.0026 µM [inhibitor, full curve, poor fit] | – |
| c1ccc2c(c1)oc1c(N3CCOCC3)ncnc12 | inconclusive: 18.5 µM [inhibitor, single point] | – |
| CCOc1cccc2sc(N(CCCN(C)C)C(=O)Cc3ccccc3)nc12 | inconclusive: 16.5 µM [inhibitor, single point] | – |
| CSCCC(NC(=O)C1CCC(C)CC1)C(=O)N1CCN(c2ccccn2)CC1 (configuration not stated) | inconclusive: 18.5 µM [inhibitor, single point] | – |
| Cc1ccc(/C=c2\s/c(=C(/C#N)C(=O)N3CCCC3)n(Cc3ccco3)c2=O)s1 | – | inactive: 19.7% |
| CNC(=O)NC(=O)CSc1ccc(NC(C)=O)cc1 | – | inactive: 15.6% |
| O=C(c1cc(N2C(=O)C3C4CCC(C4)C3C2=O)ccc1Cl)N1CCN(c2ccc(F)cc2)CC1 (configuration not stated) | inconclusive: 18.5 µM [inhibitor, single point] | – |
| O=C(COC(=O)c1ccc(-c2cnc3ccccc3n2)cc1)c1ccccc1 | – | inactive: 3.32% |
| COCCn1c(N)c(N(Cc2ccccc2)C(=O)C2CCCCC2)c(=O)[nH]c1=O | inconclusive: 3.7 µM [inhibitor, partial curve, poor fit] | – |
| O=C(CN1CCN(S(=O)(=O)c2cccs2)CC1)NCC1CCCCC1 | inconclusive: 0.0208 µM [inhibitor, full curve, poor fit] | – |
| NC(=O)/C(=C\c1ccncc1)c1cccc2ccccc12 | inconclusive: 0.465 µM [inhibitor, full curve, poor fit] | – |
| S=C(Nc1ccccc1Cl)Nc1ccc(Cl)cc1Cl | inconclusive: 13.1 µM [inhibitor, single point] | – |
| CC1=C(C(=O)OC(C)C)C(c2cccs2)N2C(=O)C(C)SC2=N1 (configuration not stated) | – | inactive: 367% |
| CCCN1CCN(C(=S)Nc2ccccc2C(F)(F)F)CC1 | inconclusive: 13.1 µM [inhibitor, single point] | – |
| O=C(CCc1nnc2ccc(NCc3ccco3)nn12)Nc1ccc(F)cc1F | inconclusive: 10.4 µM [inhibitor, partial curve, poor fit] | – |
| COc1ccc(N(C)S(=O)(=O)c2ccc(Cl)c(C(=O)NCC(C)(C)N3CCOCC3)c2)cc1 | inconclusive: 18.5 µM [inhibitor, single point] | – |
| COc1ccc(Cn2nnc(C(=O)Nc3ccc(F)cc3)c2N)cc1 | active: 1.85 µM | – |
| Cc1csc(N/N=C/c2c(F)cccc2Cl)n1 | – | inactive: 95.8% |

| SMILES | Potency | activity change, negative = inhibition |
| --- | --- | --- |
| COc1ccc(C2(CNC(=O)c3ccc(OC)c([N+](=O)[O-])c3)CCOCC2)cc1OC | active: 2.33 µM | – |
| Cc1ccc(C(=O)CSc2nnc(-c3ccco3)n2CC2CCCO2)cc1 (configuration not stated) | inconclusive: 14.7 µM [inhibitor, single point] | – |
| Cc1cc2oc(=O)cc(CN3CCCCC3)c2cc1O | – | inactive: 39% |
| OCCCc1nc2ccccc2n1Cc1ccccc1 | inconclusive: 16.5 µM [inhibitor, single point] | – |
| C=CCn1c(N)cc(=O)nc1SC(C)C(=O)Nc1cccc2ccccc12 (configuration not stated) | inconclusive: 18.5 µM [inhibitor, single point] | – |
| CCn1cc(CN2CCC(n3nccc3NC(=O)c3ccccc3C)CC2)c(C)n1 | inconclusive: 8.28 µM [inhibitor, partial curve, poor fit] | – |
| O=C(CN(C(=O)CCC(=O)Nc1ccccn1)c1ccc2c(c1)OCO2)NCc1ccco1 | – | inactive: 7.62% |
| CSc1nc(NCc2ccco2)c2ccccc2n1 | – | inactive: -31.6% |
| COc1cc(/C=C/C(=O)OCC(=O)NC2CCS(=O)(=O)C2)ccc1OC(F)F (configuration not stated) | – | inactive: 22.4% |
| Cc1ccc2cc(C#N)c(SCC(=O)NNC(=O)Cc3ccccc3)nc2c1 | inconclusive: 18.5 µM [inhibitor, single point] | – |
| Cc1cc(NC(C)C)n2c(nc3ccccc32)c1C#N | inconclusive: 16.5 µM [inhibitor, partial curve, poor fit] | – |
| COc1ccccc1C/C(N)=N/OC(=O)c1ccc(C)c([N+](=O)[O-])c1 | inconclusive: 18.5 µM [inhibitor, partial curve, poor fit] | – |
| COc1ccc(S(=O)(=O)N2CCOC2CNC(=O)C(=O)NCCc2ccc(OC)c(OC)c2)cc1 (configuration not stated) | inconclusive: 11.7 µM [inhibitor, partial curve] | – |
| O=S(=O)(NCc1ccccc1)c1cccc(S(=O)(=O)N2CCOCC2)c1 | active: 0.0586 µM | – |
| COc1ccccc1CN(C)C(=O)c1cccc(S(=O)(=O)N2CCCc3ccccc32)c1 | active: 9.28 µM | – |
| CCN(CC)c1cc(-c2ccccc2)ncn1 | – | inactive: 0.326% |
| CC(C)(C)OC(=O)NCc1ccc(CNC(=O)c2[nH]cnc2C(=O)N[C@@H](Cc2ccccc2)C(=O)OCc2ccccc2)cc1 | active: 3.29 µM | – |
| CCC(C)(C)NC(=O)C(c1ccc(C)cc1)N(CC1CCCO1)C(=O)CCC(=O)Nc1ccccn1 (configuration not stated) | active: 11.7 µM | – |
| Cc1ccc(C(=O)N/C(=C\c2ccco2)C(=O)NCCc2c[nH]c3ccccc23)cc1 | inconclusive: 18.5 µM [inhibitor, single point] | – |
| COc1cc(CC(=O)Nc2nc(-c3ccccc3)c(C(C)=O)s2)cc(OC)c1OC | inconclusive: 10.4 µM [inhibitor, single point] | – |
| COc1ccc(-c2cc(C(F)(F)F)nc(N)n2)cc1 | inconclusive: 2.62 µM [inhibitor, single point] | – |
